# These are yes or no findings as the source states them, for the method shown. In cells and extracts the contact can be indirect. Some entries that bind do so weakly or less than the wild type.
# The chains behind the UniProt entries cited, without tags or fusion partners.
# UniProt O88545: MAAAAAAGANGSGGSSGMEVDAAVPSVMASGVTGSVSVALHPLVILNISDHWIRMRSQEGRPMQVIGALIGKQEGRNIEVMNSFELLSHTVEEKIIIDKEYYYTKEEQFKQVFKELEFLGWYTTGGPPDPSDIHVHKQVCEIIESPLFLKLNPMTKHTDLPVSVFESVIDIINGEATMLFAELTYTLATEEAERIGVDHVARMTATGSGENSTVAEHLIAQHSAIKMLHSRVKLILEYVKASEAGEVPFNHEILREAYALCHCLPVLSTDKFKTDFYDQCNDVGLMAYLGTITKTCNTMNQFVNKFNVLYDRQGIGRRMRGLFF
# B1: Thymocyte-expressed, positive selection-associated 1 (Tespa1) (protein, UniProt Q3U132 1-458)
# chain: MEASVLSPTSWEKRRAWLRQSRNWQTQVLEEEAAAALQDALDPEPSSLDDVFQEGNPINKIEDWLQGCGCRDTEEGLSEESGQSNYSGYSSHGTSFEDDLSLGAEATLLSTNGNLFSRNFLQTPRLCQLLDLGSSLASSSMTGGTNKTSSSISEILDQVQEDAEDILFSLGFGHENHKDTSRIPARFFSNPSQAKGINFQLFLKSQVQRMEMEDPCLMLASRFKQVQTLAVTADAFFCLYSYVSKTPVQKFTPSNMFWNFDPTDVPSIRILAPEPEPYSPRERLRRAISKMCLYTGSRDRLSSSYNNPKKNSLDQIVWEVMDRVKGEKIQQDPEHRQALGEESVPPIQNTNPSTSSLPCVSYPKEETQGDMCHAHALARPGPQYHINSTQVRRQLWVLQDINEKPRSAENESPWERKSKARKNLFQRVPVDKNIKSLNLPTIQQKQNQGQARHELTNL
# Key:
# [1] = substrate: CSN subunit 6 (CSN6), a subunit of COP9 signalosome (mouse (endogenous in bone marrow HSCs / Lin- c-Kit+ cells)) (UniProt O88545); test: proximity ligation; in situ proximity ligation assay in mouse HSCs upon 5-FU and IR treatment
# [2] = substrate: CSN subunit 6 (CSN6), a subunit of COP9 signalosome (mouse (endogenous in bone marrow HSCs / Lin- c-Kit+ cells)) (UniProt O88545); test: co-IP; Lin- c-Kit+ cells purified from the BM of mice at day 9 after 5-FU injection; IgG antibody as negative control; endogenous proteins
binder,measurement,setting,value
B1,binding,[1],binds
same,binding,[2],binds

# — PMC10169665
